The target in assay [1] is AMP-activated protein kinase catalytic subunit α1 (AMPKα1) (human (endogenous in SMMC-7721 or HepG2)) (UniProt Q13131). Put plainly: co-IP.
Assay [2] has as its target AMP-activated protein kinase catalytic subunit α2 (AMPKα2) (human (endogenous in SMMC-7721 or HepG2)) (UniProt P54646). Put plainly: co-IP.

Amino acid sequences for entries named in this document (tags omitted).
UniProt Q13131: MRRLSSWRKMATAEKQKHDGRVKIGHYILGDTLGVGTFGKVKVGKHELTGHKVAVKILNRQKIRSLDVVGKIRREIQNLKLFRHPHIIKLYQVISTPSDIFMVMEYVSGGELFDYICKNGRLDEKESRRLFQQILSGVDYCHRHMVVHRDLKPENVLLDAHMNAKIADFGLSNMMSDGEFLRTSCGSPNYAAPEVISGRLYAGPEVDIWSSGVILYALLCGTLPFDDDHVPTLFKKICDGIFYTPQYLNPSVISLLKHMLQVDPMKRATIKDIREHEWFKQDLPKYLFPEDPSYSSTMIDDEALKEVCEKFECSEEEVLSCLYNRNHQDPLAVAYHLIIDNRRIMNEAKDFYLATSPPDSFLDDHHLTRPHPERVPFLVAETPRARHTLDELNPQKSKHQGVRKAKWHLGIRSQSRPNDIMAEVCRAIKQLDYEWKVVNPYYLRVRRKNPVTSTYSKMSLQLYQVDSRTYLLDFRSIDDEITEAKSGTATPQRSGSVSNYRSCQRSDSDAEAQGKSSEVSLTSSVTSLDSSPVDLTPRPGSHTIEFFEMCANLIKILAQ
UniProt P54646: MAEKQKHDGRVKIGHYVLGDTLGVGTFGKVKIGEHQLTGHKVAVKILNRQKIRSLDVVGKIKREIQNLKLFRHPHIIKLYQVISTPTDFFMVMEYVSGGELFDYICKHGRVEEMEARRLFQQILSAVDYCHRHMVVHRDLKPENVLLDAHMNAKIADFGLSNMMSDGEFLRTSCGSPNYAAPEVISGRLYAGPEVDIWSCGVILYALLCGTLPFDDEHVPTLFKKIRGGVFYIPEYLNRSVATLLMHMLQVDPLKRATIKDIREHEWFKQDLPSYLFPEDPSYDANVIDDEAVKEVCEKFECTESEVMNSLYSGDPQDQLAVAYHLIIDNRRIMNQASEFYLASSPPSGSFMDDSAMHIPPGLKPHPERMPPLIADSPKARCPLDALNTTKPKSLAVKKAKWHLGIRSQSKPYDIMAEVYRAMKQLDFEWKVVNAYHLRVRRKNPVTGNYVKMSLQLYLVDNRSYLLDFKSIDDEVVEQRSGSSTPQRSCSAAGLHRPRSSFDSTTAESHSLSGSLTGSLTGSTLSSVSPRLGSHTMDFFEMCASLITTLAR

No constants are given. Whether binding was seen depends on the method and setting. In cells and extracts the contact can be indirect. Some results given as binding are weak or reduced against the parent protein; the word gives no strength. For part of these data: Tags and fused reporters may be left off the sequences shown.

B1: SUMO Specific Peptidase 5 (SENP5) (enzyme, UniProt Q96HI0 1-755)
chain: MKKQRKILWRKGIHLAFSEKWNTGFGGFKKFYFHQHLCILKAKLGRPVTWNRQLRHFQGRKKALQIQKTWIKDEPLCAKTKFNVATQNVSTLSSKVKRKDAKHFISSSKTLLRLQAEKLLSSAKNSDHEYCREKNLLKAVTDFPSNSALGQANGHRPRTDPQPSDFPMKFNGESQSPGESGTIVVTLNNHKRKGFCYGCCQGPEHHRNGGPLIPKKFQLNQHRRIKLSPLMMYEKLSMIRFRYRILRSQHFRTKSKVCKLRKAQRSWVQKVTGDHQETRRENGEGGSCSPFPSPEPKDPSCRHQPYFPDMDSSAVVKGTNSHVPDCHTKGSSFLGKELSLDEAFPDQQNGSATNAWDQSSCSSPKWECTELIHDIPLPEHRSNTMFISETEREIMTLGQENQTSSVSDDRVKLSVSGADTSVSSVDGPVSQKAVQNENSYQMEEDGSLKQSILSSELLDHPYCKSPLEAPLVCSGLKLENQVGGGKNSQKASPVDDEQLSVCLSGFLDEVMKKYGSLVPLSEKEVLGRLKDVFNEDFSNRKPFINREITNYRARHQKCNFRIFYNKHMLDMDDLATLDGQNWLNDQVINMYGELIMDAVPDKVHFFNSFFHRQLVTKGYNGVKRWTKKVDLFKKSLLLIPIHLEVHWSLITVTLSNRIISFYDSQGIHFKFCVENIRKYLLTEAREKNRPEFLQGWQTAVTKCIPQQKNDSDCGVFVLQYCKCLALEQPFQFSQEDMPRVRKRIYKELCECRLMD
With B1, the binding entry in assay [1] and in assay [2] was “binds” in each case.

B2: HA-SENP5 (enzyme, UniProt Q96HI0 1-755)
chain: B1 chain
B2: in assay [2], the binding result is listed as “binds”.
